Assay results: PubChem BioAssay AID1671190 (National Center for Advancing Translational Sciences (NCATS), 2021)
The campaign covered roughly 580,000 compounds. About 6,100 (1.1%) were called active. Inconclusive results, whose numbers are uncertain, are shown with a selection of clear calls. Calls follow the shape of the dose curve; as a rule, active = well fitted inhibition curve with a large enough effect; inconclusive = small, poorly fitted or top-dose-only effect, or another doubt; inactive = no such curve, though single readings can be large or run the other way. Potencies of inconclusive entries are doubtful fits and often do not repeat.

The chains behind the UniProt entries cited, without tags or fusion partners. Where a name states a change or a piece, a line headed by the entry shows the natural chain unless it says otherwise.
UniProt P18054: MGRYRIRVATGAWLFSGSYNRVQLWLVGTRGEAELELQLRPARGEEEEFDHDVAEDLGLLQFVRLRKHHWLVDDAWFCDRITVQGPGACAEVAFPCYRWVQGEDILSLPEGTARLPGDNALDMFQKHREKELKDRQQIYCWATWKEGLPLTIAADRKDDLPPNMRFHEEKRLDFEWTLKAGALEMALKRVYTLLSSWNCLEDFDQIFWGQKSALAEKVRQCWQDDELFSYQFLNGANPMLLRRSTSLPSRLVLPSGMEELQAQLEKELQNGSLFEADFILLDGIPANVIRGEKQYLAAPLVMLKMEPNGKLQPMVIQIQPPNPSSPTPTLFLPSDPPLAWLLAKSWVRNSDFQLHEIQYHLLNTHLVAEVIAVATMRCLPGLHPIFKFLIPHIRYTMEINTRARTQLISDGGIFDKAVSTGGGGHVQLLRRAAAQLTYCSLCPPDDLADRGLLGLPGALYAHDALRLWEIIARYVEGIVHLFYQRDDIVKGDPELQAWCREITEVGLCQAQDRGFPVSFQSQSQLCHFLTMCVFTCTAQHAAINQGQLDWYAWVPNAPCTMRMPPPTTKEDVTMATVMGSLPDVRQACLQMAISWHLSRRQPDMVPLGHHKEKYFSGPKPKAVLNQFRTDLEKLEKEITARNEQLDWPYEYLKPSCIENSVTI

Molecular target: Polyunsaturated fatty acid lipoxygenase ALOX12 (Homo sapiens) (UniProt P18054)
Assay: Primary qHTS assay for inhibitors of human arachidonate 12S-lipoxygenase (ALOX12): Round 2
Settings: purified 12hLO, xylenol orange hydroperoxide absorbance; activity change, negative = inhibition: at 108 µM (top of the series) unless noted
In short: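 Purified human 12hLO at 150 nM in 25 mM Hepes, 0.01% Triton X-100, pH 7.0, preincubated 15 min at room temperature with compound. Reaction started with 40 uM arachidonic acid, 30 min at room temperature. Hydroperoxide measured by Fe-xylenol orange, 573/405 nm absorbance ratio.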
% is scaled to controls: 0 for no effect and ±100 for the full control effect; potency is read from the fitted curve at half-maximal effect.

Q: With `CCCSC1=C(C#N)C(c2ccc(Cl)cc2Cl)CC(=O)N1` (stereo not given) as the compound, how does the Potency read?
A: inconclusive: 15.8 µM [inhibitor, full curve, poor fit]

Q: For `O=C(CNC(=O)c1ccccc1F)N/N=C/c1cc(Br)ccc1OC(=O)/C=C/c1ccco1`, which “activity change, negative = inhibition” value is on record?
A: inactive: -20.4%

Q: Which Potency does the source give for `O=C(O)c1cc(-c2ccc(Cl)cc2)n(-c2ccc(Cl)cc2)n1` here?
A: inconclusive: 100 µM [inhibitor, partial curve, poor fit]

Q: How did the Potency turn out when `CCSc1ccc2cc(C(=O)O)[nH]c2c1` was run?
A: inconclusive: 31.6 µM [inhibitor, partial curve, poor fit]

Q: For `O=C(O)c1ccc(N2CCN(C(c3ccccc3)c3ccccc3)CC2)c([N+](=O)[O-])c1`, which Potency is on record?
A: inconclusive: 56.2 µM [inhibitor, partial curve, poor fit]

Q: How did the “activity change, negative = inhibition” value turn out when `CN(C)CCOc1cccc(N)c1` was run?
A: inactive: 22.8%

Q: With `O=C(N/N=C/c1ccncc1)c1ccc(NC(=O)c2ccc(Cl)cc2)cc1` as the compound, how does the “activity change, negative = inhibition” value read?
A: inactive: -14.1%

Q: With `c1ccc(Cc2nnc3sc(-c4ccncc4)nn23)cc1` as the compound, how does the Potency read?
A: inconclusive: 44.7 µM [inhibitor, partial curve, poor fit]

Q: How did the Potency turn out when `NS(=O)(=O)c1ccc(NC(=S)Nc2ccn(Cc3cccc4ccccc34)n2)cc1` was run?
A: active: 22.4 µM

Q: How did the “activity change, negative = inhibition” value turn out when `O=C(CC[C@H]1NC(=O)c2ccccc2NC1=O)NC1CCN(Cc2ccc(F)cc2)CC1` was run?
A: inactive: 5.78%

Q: With `CC(C(=O)N(C)CC(=O)Nc1ccccc1C(F)(F)F)N1CCCC(C(F)(F)F)C1` (stereo not given) as the compound, how does the “activity change, negative = inhibition” value read?
A: inactive: -56.9%

Q: Which “activity change, negative = inhibition” value does the source give for `Cc1ccc(C2=C(O)C(=O)N(Cc3ccccn3)C2c2ccccc2)cc1` (stereo not given) here?
A: inactive: 4.22%

Q: With `Cc1cnc(CNc2ncnc3ccc(-c4ccccc4CN(C)C)cc23)cn1` as the compound, how does the Potency read?
A: inconclusive: 50.1 µM [inhibitor, partial curve, poor fit]

Q: With `COc1ccc(-n2c(SCC(=O)Nc3ccccc3)nc(O)cc2=O)cc1` as the compound, how does the Potency read?
A: inconclusive: 50.1 µM [inhibitor, partial curve, poor fit]

Q: With `Cc1nc(NC(=O)c2cccs2)ccc1Br` as the compound, how does the Potency read?
A: inconclusive: 50.1 µM [inhibitor, partial curve, poor fit]

Q: How did the “activity change, negative = inhibition” value turn out when `Cc1ccc(C)c(N(C(=O)CNC(=O)c2ccco2)C(C(=O)NC2CCCCC2)c2cccnc2)c1` (stereo not given) was run?
A: inactive: 0%

Q: For `O=C(Nc1ccc([C@@H](O)[C@H]2COCC(=O)N2Cc2ccc(C(F)(F)F)cc2)cc1)C1CCCCC1`, which “activity change, negative = inhibition” value is on record?
A: inactive: 33.4%

Q: With `COCCCNC(=O)c1cccc2c(-c3ccc(O)c(OC)c3)coc12` as the compound, how does the Potency read?
A: inconclusive: 50.1 µM [inhibitor, partial curve, poor fit]

Q: How did the “activity change, negative = inhibition” value turn out when `O=C1C2C3C=CC(C3=C(c3ccccc3)c3ccccc3)C2C(=O)N1Cc1ccccc1` (stereo not given) was run?
A: inactive: 388%

Q: Which Potency does the source give for `COc1ccc(NC(=O)C(c2ccc(OC)cc2)n2c(=O)c(-c3ccco3)nc3ccccc32)cc1` (stereo not given) here?
A: inconclusive: 89.1 µM [inhibitor, single point]
